Results are given in words; binding and its absence hold for the method and conditions named. Binding seen in cells or lysates may run through a third protein. Some results given as binding are weak or reduced against the parent protein; the word gives no strength. Tags and fused reporters may be left off the sequences shown.
Molecular target: HA-Ci-155 (Drosophila) (UniProt P19538)
Test: co-IP; clone-8 cells transfected with Myc-importin α3, HA-Ci-155 and Hh; lysis in 50 mM HEPES pH 7.4, 250 mM NaCl, 0.5% NP-40, 0.2 mM EDTA, diluted to 150 mM NaCl; immunoprecipitation with anti-HA (3F10) or control rat IgG; blot with anti-HA or anti-Myc

Sequences of proteins named here, by UniProt entry; tags and fusion partners are left off.
UniProt P19538: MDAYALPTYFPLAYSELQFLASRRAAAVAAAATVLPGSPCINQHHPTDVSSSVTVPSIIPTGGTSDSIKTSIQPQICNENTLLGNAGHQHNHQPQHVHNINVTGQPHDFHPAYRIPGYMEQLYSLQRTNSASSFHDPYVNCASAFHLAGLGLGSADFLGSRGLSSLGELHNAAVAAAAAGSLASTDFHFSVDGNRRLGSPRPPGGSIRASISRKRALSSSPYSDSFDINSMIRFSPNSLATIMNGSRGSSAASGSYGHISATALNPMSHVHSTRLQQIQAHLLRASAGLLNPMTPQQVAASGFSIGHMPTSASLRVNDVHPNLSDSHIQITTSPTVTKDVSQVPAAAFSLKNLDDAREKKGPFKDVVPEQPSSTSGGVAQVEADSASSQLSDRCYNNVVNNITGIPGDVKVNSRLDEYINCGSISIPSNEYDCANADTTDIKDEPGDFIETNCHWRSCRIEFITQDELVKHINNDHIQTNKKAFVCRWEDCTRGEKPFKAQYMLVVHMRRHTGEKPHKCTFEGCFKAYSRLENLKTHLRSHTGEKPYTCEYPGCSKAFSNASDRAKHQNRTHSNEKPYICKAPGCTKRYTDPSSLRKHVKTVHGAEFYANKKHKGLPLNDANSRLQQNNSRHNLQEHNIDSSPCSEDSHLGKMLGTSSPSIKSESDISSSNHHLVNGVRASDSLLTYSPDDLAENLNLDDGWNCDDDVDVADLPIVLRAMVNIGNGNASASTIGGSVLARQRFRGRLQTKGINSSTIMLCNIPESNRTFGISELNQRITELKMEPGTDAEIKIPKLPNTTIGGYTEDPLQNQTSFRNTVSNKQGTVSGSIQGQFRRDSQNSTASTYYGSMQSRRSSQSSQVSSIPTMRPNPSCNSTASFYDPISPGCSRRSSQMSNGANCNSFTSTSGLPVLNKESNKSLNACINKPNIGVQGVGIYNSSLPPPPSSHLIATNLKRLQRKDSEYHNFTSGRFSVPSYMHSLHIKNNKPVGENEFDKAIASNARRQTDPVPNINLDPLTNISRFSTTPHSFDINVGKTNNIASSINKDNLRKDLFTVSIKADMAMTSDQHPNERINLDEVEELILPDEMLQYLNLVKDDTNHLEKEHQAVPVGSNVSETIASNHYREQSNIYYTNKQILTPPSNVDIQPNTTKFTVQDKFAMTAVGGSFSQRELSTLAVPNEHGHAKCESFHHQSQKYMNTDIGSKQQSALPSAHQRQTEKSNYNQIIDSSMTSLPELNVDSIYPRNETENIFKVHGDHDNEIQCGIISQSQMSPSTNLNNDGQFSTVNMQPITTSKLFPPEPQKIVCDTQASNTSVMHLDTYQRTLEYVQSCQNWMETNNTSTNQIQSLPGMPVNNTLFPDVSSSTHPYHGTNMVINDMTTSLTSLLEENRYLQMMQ

binding: binds
B1: Myc-Importin α3 (protein, UniProt Q9V455 1-514)
chain: MTSMEQNRLQNFKNKGKDQDEMRRRRNEVTVELRKNKREETILKRRNVPNLDSNTDEEEQLSSSIDLKKLAKAAADATKPEQQLAAVQAARKLLSSDKNPPINDLIQSDILPILVECLKQHNHTMLQFEAAWALTNIASGTSAQTNEVVAAGAVPLFLQLLNSPAPNVCEQAVWALGNIIGDGPLLRDFVIKHGVVQPLLSFIKPDIPITFLRNVTWVIVNLCRNKDPAPPTATIHEILPALNVLIHHTDTNILVDTVWAISYLTDGGNDQIQMVIESGVVPKLIPLLGNSEVKVQTAALRAVGNIVTGSDEQTQVVLNYDALSYFPGLLSHPKEKIRKEAVWFLSNITAGNQSQVQAVINVGLLPKIIENLSKGEFQTQKEAAWAISNLTISGNREQVFTLIKEGVIPPFCDLLSCQDTQVINVVLDGLNNMLKVADSHVEAVANCIEECEGLAKIERLQSHENVEIYKLAYEIIDQYFTDEGEQTNMAPTSDGAQYNFDPHADRLTMNSFNF
